{"source": "patent US4151283A", "about": "“6-Methyl-and 1,6-dimethyl-8β-carbobenzyloxy-aminomethyl-10α-ergoline as inhibitors of prolactin secretion” (Societa' Farmaceutici Italia S.p.A., priority 1977, dated 1979)", "tested_on": "puerperal lactation", "assay": "Inhibition of puerperal lactation in women (clinical evaluation)", "format": "in vivo, human (puerperal women)", "conditions": "in words", "description": "The invention concerns a novel method of inhibiting lactation in puerperal women by administering metergoline.\nMetergoline was administered at a dose of 8 mg/day (4 mg at 0.800 and 4 mg at 2000) to these women: 10 women were treated with a placebo.", "note": "At least one compound was matched to its structure with a doubt left."}
{"smiles": "CN1C[C@H](CNC(=O)OCc2ccccc2)C[C@@H]2c3cccc4c3c(cn4C)C[C@H]21", "note": "[Metergoline, 1,6-Dimethyl-8β-carbobenzyloxy-aminomethyl-10α-ergoline]", "values": [{"measurement": "effect on puerperal lactation compared with bromocriptine", "result": "comparable in effect to the dopaminergic drug 2-Br-α-ergocriptine (bromocriptine)"}]}
